Library screen at single concentrations

Sequences of proteins named here, by UniProt entry; tags and fusion partners are left off. Residues count along the entry.
UniProt A4I591, 1-473: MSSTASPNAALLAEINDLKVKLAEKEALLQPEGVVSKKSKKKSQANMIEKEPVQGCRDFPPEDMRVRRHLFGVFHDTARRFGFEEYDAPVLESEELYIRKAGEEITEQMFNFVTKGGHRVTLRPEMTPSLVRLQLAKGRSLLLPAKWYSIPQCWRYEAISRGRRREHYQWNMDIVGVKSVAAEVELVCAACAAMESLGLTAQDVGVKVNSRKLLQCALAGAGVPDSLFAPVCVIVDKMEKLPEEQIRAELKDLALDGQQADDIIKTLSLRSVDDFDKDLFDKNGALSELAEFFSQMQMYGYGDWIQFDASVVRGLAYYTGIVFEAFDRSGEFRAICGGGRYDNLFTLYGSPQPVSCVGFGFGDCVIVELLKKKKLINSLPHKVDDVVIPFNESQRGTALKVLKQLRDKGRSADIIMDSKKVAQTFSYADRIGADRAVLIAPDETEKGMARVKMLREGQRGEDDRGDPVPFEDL

The values are deposited in ChEMBL (CHEMBL3988442, “University of Dundee, Small-Polar-MMV Screening Library” (2021)).

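Histidine-tRNA ligase, Leishmania infantum (UniProt A4I591). Enzyme assay of histidyl-tRNA synthetase; the read-out is not stated. Tested at 30 µM. Direction is inferred from retests: higher values go with stronger inhibition. The assay is labelled LdHisRS but filed under L. infantum. Size under these conditions: about 69,000 compounds, about 410 of them at 50% or above in at least one test.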

Values are the deposited “Percent Effect”, in %.
The record does not define 0% and 100%; most values in the screen are far below 50% and negative numbers occur (in some assays of this library far below -100).
The compounds are a random part of those screened.

structure	effect
Clc1snnc1CN1CCCCC1Cn1cccn1 (stereo not drawn)	15.25
Cc1cccnc1N1CC2(CCN(Cc3cccnc3)C2)C1	13.46
Cc1cc(C(=O)NC2(c3ccc(Br)cc3)CC2)n(C)n1	12.68
c1cn(-c2ccc(N3CCC(NC4CC4)CC3)cc2)cn1	11.48
CCOc1nnc(CN2CCN(CCOC)C(C)C2)s1 (stereo not drawn)	9.821
Cc1ccc(C(=O)N2Cc3c(CN4CCCCC4)nn(C)c3C2)cc1C	-11.76
O=C(CS(=O)(=O)Cc1cc(Cl)c2c(c1)OCO2)N1CCCCCC1	11.61
Cc1cc(CN(C)C2CCCN(Cc3noc(C4CC4)n3)C2)no1 (stereo not drawn)	16.67
Cc1cnc(C(=O)N2CCC3(CC2)CC(c2ccncc2)C(=O)N3)cn1 (stereo not drawn)	28.57
Cn1cc(CN2CCCC(c3nccnc3-c3cccc(F)c3)C2)cn1 (stereo not drawn)	11.35
O=C(NCC(=O)N1CCc2ccccc2C1)c1ccoc1	-6.25
O=C(c1ccc(-c2nc[nH]n2)cc1)N1CC[C@H](CO)[C@@H](O)C1	14.52
COC(=O)CN(C(=O)c1ccc(-n2ccnc2)cc1)C1CC1	9.735
Fc1ccc(-c2c[nH]c([C@@H]3COCCN3)n2)cc1	27.03
O=C(NCCc1ccncc1)c1cccc(S(=O)(=O)N[C@@H]2CCNC2)c1	20.35
Cc1nc(CN2C[C@@H]3CN(C(=O)C4(C#N)CC4)C[C@@H]3C2=O)cs1	26.47
CC1(C)CN=C(N2CCN(CC3CCCO3)CC2)S1 (stereo not drawn)	6.122
CCOc1cc(C(=O)N2CCCC(c3noc(C(C)C)n3)C2)ccn1 (stereo not drawn)	4.464
CC(=O)N1CCC(Cc2cnc(-c3c(C)n[nH]c3C)cn2)CC1	7.368
Cc1nn(-c2ccc(F)cc2)c2[nH]nc(N)c12	17.81
COc1ccccc1C(=O)NC(CC(=O)O)c1cccs1 (stereo not drawn)	16.22
Cc1noc(C)c1CCC(=O)NC(C)c1nnc2n1CCC2 (stereo not drawn)	11.32
O=C(NCCn1nc2ccccn2c1=O)c1cc[nH]n1	16.98
NCC1(c2cccc(C(F)(F)F)c2)CC1	18.18
Cc1ccc(NC2CCN(C(=O)CCCc3ccccn3)CC2)nn1	16.67
CC(=O)N1CCC(N2CC[C@H](c3nc4cc(C)ccc4o3)C2)CC1	24.32
Cc1cccc(OCCC(=O)N(C)CCC#N)c1C	20
O=C(c1nc(Cc2c[nH]c3ccccc23)no1)N1CCOCC1	-8.696
CC(C)c1cc(C(=O)N2CCN(c3ccncc3)CC2)n(C)n1	15.56
CC(C)c1ncc2c(n1)CN(CCCc1nc3ccccc3o1)CC2	10.71
CSc1ccc(C(=O)N2CC(=O)N(Cc3cccs3)CC(O)C2)cc1 (stereo not drawn)	14.29
CCn1cnnc1CN(C)C(=O)C1CCC(=O)N(CC2CCCCC2)C1 (stereo not drawn)	0
CC(C)c1cc2c(O)nc(CSCC(=O)NCc3ccccn3)nc2s1	13.33
CCCN(Cc1ccccc1)Cn1nc(C)c2c(C)onc2c1=O	-92.86
O=C([C@@H]1C[C@@H]2CCN(Cc3ccco3)C[C@H]2O1)N1CCCO1	15.04
COCCCNC(=O)C1CN(C(=O)c2cnccn2)C1	13.91
O=C(NCC1Cn2nnc(-c3cccc(F)c3)c2CO1)c1ccc[nH]1 (stereo not drawn)	16.36
O=C(O)c1cccc(C2CCCN(S(=O)(=O)N3CCOCC3)C2)c1 (stereo not drawn)	1.639
CN1CCCc2cc(CNC(=O)c3ccncc3)ccc21	32.43
Cc1cnn(CC2CCCCN2C(=O)c2ccc(CN(C)C)cc2)c1 (stereo not drawn)	4.425
CN(Cc1c(F)cccc1Cl)C(=O)c1cnn(CCN2CCCCC2)c1	8
CC(=O)NCC(=O)N1CCC2(CC1)NC(=O)CC2c1cnn(C)c1 (stereo not drawn)	11.11
O=C(c1ccncn1)N1CCC[C@]2(C[C@@H](OCc3ccccn3)CO2)C1	-2
C[C@@H]1CN(S(=O)(=O)c2ccc(F)cc2F)C[C@]1(C)O	8.571
CS(=O)(=O)N(Cc1ccon1)c1cccc(Br)c1	2.083
c1coc(CN2CCc3onc(Cn4cccc4)c3C2)c1	12
c1cncc(CN(Cc2ccc(-n3ccnc3)cc2)CC2CCCO2)c1 (stereo not drawn)	20.48
O=S(=O)(NCc1ccc(S(=O)(=O)N2CCCC2)s1)c1ccc(F)cc1Cl	15.79
CN1CCN(Cc2cn3c(n2)CN(C(=O)N2CCCC2)CC3)CC1	11.11
COC(=O)C(NC(=O)C(C)C)c1cc(F)ccc1F (stereo not drawn)	-10.96
Cc1nn(C)c(C)c1CCC(=O)NCC1(C(N)=O)CCOCC1	12.94
O=C(CC1CCCO1)Nc1ccc2c(ccn2CCN2CCOCC2)c1 (stereo not drawn)	21.13
COC(=O)c1ccc(NC(C)c2ccc3c(c2)CCC(=O)N3)nn1 (stereo not drawn)	9.574
CN(CC1CCOCC1)C(C(=O)O)c1cccc(F)c1F (stereo not drawn)	0.885
Cc1nc(C)c(C(C)NCc2cnc(N3CCOCC3)nc2)s1 (stereo not drawn)	12.39
CSc1ccc(CN(C)Cc2noc(C(C)(C)C)n2)cc1	3.529
CCc1cnc(N)nc1NCCCN1CCCCC1CO (stereo not drawn)	11.9
Cc1noc(C)c1CN1CCO[C@H]2CN(Cc3cncn3C)C[C@H]21	0.885
Cc1cc(SCC(=O)O)nc2nn(CC(F)F)c(C)c12	-12.37
CC(C)(C)n1cc(CNc2ccc(CNS(C)(=O)=O)cc2)cn1	10.2
O=C1CC(c2ccncc2)c2c(sc3c2CCCC3)N1 (stereo not drawn)	8.046
CC(=O)c1ccc(S(=O)(=O)N2CCC(c3n[nH]c(C)n3)CC2)cc1	-12.68
COc1cccc(CN(C)CC2=Nc3ccccc3S(=O)(=O)N2)c1	13.51
CCN1CCCC(c2c(-c3ccccc3)ncn2CCc2c[nH]cn2)C1 (stereo not drawn)	11.76
COc1ccc(-n2ccc(CNCc3cccc(OC)c3)n2)cc1	-63.39
CCCOC(C)Cn1ccc2[nH]c(=O)c(C#N)cc2c1=O (stereo not drawn)	10.75
O=C(Cn1cc(-c2ccccc2)ncc1=O)Nc1nccs1	28.57
CN(C)CCNC(=O)c1cc2c(s1)CCN2S(C)(=O)=O	0
CC(C)(C)CC(=O)NC[C@H]1OC[C@@H](NC2CCC(F)(F)CC2)[C@@H]1O	4.054
Cc1cc(N2CCN(C(=O)c3cc(Cl)c[nH]3)CC2)nc(C(C)C)n1	14.52
CCOc1cccc(COC(=O)c2scnc2C)n1	7.5
NC(=O)CC1CCCCN1C(=O)Cc1cccc(Br)c1 (stereo not drawn)	18.42
Cc1ccc(-c2cn[nH]c2C2CCCN(c3cc(N)ncn3)C2)cc1 (stereo not drawn)	3.03
CC(=O)N1CCO[C@@H]2CN(Cc3cccc(Cl)c3)C[C@@H]2C1	15.32
CC(C)(C)c1ncc(CNCC2CCCN2c2cccnn2)s1 (stereo not drawn)	13.68
NC(=O)C1CN(Cc2c(O)ccc3oc4c(c23)CCCC4)CCO1 (stereo not drawn)	16.67
CNC(=O)c1sc(C2CCCC2)nc1C	6.452
c1csc(-c2noc(CN3CCc4cncnc4C3)n2)c1	26.79
CC(C)c1nc(C2CCCN2Cc2ccno2)no1 (stereo not drawn)	2.74
N#Cc1cccnc1N1CCN(C(=O)CCC(=O)c2cccs2)CC1	0.8547
O=C1CC2(CCCC2)CC(=O)N1Cc1nccs1	16.81
CSC(C)Cc1c(-c2ccccc2)ncn1CCCNc1cccnc1 (stereo not drawn)	12.68

5 of the entries, repeated:

structure,effect
COc1ccc(-n2ccc(CNCc3cccc(OC)c3)n2)cc1,-63.39
Cc1nn(-c2ccc(F)cc2)c2[nH]nc(N)c12,17.81
Fc1ccc(-c2c[nH]c([C@@H]3COCCN3)n2)cc1,27.03
NC(=O)C1CN(Cc2c(O)ccc3oc4c(c23)CCCC4)CCO1 (stereo not drawn),16.67
CN(Cc1c(F)cccc1Cl)C(=O)c1cnn(CCN2CCCCC2)c1,8